No constants are given. Whether binding was seen depends on the method and setting. Binding seen in cells or lysates may run through a third protein. Some results given as binding are weak or reduced against the parent protein; the word gives no strength. Where a sequence is shown, tags or fusion partners need not be part of it.
T1: GFP-PDK1 (3-phosphoinositide-dependent protein kinase-1) (UniProt O15530)
T1 sequence: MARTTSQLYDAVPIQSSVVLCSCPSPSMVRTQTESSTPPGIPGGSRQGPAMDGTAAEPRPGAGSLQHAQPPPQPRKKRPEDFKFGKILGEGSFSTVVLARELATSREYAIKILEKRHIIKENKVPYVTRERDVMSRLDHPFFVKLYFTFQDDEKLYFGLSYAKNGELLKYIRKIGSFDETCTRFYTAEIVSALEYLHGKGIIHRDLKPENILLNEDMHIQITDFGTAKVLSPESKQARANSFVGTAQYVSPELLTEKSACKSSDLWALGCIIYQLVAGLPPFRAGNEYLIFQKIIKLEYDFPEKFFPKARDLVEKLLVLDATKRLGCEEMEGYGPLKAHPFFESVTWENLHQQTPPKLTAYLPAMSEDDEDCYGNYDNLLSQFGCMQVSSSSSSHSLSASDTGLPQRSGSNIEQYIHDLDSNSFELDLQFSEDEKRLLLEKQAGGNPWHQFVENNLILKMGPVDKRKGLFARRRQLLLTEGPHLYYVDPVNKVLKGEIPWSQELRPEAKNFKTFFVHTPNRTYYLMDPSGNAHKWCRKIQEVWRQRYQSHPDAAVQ

T2: GFP-PDK1 PH domain (UniProt O15530)
T2 sequence: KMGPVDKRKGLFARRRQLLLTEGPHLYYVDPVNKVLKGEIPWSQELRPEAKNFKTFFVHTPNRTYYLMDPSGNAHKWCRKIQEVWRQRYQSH

B1: GFP-PDK1 (3-phosphoinositide-dependent protein kinase-1) (enzyme, UniProt O15530 1-556)
chain: T1 sequence

Key:
Test in all cases: co-IP
[1] = target: T1, GFP-PDK1 (3-phosphoinositide-dependent protein kinase-1)
[2] = target: T2, GFP-PDK1 PH domain
[3] = target: FLAG-SARS-CoV-2 M (membrane glycoprotein M) (SARS-CoV-2) (UniProt P0DTC5)

Molecule	binding [1]	binding [2]	binding [3]
Myc-SARS-CoV-2 M (from UniProt P0DTC5 1-222)	binds		
FLAG-SARS-CoV-2 M (membrane glycoprotein M) (from UniProt P0DTC5 1-222)	binds	binds	
B1			binds

Source: publication PMC8425412
